# Results: the supplement of paper PMC10849652
# Sequences of proteins named here, by UniProt entry; tags and fusion partners are left off. A change or cut given only in a name is not applied to a line headed by its entry.
# UniProt Q9H2S9: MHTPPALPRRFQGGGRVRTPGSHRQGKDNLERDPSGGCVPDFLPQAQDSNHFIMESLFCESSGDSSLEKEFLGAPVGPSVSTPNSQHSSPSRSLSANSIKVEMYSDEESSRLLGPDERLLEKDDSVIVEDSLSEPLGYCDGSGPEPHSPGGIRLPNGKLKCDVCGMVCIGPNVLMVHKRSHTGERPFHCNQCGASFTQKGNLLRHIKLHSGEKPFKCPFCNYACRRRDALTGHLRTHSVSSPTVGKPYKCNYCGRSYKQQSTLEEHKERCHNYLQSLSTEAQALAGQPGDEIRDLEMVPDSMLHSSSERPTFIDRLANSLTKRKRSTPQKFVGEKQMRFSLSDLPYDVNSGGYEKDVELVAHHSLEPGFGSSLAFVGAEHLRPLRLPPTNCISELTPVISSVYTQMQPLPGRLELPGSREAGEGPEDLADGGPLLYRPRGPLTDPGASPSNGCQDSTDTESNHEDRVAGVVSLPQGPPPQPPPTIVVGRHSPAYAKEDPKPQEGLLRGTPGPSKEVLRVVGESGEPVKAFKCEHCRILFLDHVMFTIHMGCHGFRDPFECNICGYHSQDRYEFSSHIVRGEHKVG
# UniProt Q92551: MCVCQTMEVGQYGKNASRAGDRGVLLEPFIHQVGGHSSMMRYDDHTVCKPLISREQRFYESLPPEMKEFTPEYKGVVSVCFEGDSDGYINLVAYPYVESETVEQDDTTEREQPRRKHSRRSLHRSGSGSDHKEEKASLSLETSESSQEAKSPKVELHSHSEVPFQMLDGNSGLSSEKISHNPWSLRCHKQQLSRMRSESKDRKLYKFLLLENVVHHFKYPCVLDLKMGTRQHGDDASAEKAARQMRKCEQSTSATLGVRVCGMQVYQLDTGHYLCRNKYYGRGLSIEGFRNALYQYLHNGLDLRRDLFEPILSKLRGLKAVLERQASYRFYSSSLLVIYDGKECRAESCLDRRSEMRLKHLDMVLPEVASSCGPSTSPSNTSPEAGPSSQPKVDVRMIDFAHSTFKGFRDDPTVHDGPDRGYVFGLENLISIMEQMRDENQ
# UniProt Q8IU81: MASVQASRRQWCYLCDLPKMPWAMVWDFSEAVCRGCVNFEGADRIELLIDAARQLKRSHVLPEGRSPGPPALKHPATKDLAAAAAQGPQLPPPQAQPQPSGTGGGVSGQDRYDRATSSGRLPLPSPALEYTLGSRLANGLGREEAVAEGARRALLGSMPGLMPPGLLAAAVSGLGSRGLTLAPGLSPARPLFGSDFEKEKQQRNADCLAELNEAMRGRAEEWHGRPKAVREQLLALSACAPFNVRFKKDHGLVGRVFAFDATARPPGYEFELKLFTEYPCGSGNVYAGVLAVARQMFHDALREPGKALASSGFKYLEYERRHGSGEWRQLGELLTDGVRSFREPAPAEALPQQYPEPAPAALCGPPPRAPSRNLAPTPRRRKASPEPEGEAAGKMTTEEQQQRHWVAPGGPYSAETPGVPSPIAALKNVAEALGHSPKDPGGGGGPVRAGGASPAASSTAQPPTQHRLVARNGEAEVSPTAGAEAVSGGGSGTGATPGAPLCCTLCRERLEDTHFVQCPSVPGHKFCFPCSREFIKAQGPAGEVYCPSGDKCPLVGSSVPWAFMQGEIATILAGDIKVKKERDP
# UniProt Q08334: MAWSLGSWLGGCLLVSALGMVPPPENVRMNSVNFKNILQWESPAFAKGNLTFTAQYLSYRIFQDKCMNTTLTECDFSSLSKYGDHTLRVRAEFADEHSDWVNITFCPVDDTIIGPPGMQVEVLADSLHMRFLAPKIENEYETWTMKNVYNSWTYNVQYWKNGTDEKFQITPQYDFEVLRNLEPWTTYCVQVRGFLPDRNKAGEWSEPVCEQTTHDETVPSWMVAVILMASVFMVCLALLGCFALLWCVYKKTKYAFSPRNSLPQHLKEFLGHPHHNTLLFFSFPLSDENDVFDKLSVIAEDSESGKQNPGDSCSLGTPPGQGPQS
# UniProt P0DMQ5: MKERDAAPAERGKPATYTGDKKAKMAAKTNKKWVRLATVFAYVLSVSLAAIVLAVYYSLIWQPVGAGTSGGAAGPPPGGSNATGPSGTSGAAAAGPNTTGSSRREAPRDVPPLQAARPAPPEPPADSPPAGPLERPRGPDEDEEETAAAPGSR
# UniProt P50213: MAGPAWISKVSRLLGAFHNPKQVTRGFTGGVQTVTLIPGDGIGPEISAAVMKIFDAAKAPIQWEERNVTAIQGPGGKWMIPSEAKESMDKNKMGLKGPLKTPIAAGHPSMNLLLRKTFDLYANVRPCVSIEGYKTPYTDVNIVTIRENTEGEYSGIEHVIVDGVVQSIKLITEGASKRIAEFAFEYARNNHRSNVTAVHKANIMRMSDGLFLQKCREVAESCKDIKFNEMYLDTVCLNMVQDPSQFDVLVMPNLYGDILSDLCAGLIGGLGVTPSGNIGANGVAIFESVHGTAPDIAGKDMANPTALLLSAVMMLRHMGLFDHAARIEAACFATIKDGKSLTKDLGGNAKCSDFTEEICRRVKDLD
# UniProt Q96A47: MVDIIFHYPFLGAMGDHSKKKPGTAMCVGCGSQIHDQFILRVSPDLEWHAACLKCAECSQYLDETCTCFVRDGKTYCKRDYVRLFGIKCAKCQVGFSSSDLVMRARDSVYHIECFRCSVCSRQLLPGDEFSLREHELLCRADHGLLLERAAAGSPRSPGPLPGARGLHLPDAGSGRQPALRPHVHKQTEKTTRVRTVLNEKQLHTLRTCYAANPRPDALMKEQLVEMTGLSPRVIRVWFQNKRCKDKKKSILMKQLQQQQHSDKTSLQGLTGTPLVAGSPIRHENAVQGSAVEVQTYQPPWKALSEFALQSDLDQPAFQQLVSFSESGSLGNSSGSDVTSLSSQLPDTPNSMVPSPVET
# UniProt Q9UK53: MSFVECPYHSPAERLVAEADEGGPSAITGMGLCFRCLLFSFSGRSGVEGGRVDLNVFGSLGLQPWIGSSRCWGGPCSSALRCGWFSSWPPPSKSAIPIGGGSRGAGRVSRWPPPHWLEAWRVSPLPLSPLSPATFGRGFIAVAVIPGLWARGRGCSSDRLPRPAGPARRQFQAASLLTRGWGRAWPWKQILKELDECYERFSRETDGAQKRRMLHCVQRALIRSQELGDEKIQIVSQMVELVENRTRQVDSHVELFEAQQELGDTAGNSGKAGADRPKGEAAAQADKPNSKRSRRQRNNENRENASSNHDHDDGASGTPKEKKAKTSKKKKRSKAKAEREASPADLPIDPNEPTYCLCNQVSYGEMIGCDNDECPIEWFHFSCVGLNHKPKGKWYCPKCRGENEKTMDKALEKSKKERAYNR
# UniProt P17936, whole entry, looked up: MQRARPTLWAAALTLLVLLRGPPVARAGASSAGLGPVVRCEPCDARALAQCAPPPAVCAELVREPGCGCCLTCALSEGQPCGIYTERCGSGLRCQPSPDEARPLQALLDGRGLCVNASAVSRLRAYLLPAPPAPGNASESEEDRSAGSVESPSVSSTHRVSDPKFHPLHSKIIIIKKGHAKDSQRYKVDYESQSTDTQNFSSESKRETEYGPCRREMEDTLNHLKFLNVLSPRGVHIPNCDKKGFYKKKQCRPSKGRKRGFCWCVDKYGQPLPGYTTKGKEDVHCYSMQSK
# UniProt Q9H0H0, whole entry, looked up: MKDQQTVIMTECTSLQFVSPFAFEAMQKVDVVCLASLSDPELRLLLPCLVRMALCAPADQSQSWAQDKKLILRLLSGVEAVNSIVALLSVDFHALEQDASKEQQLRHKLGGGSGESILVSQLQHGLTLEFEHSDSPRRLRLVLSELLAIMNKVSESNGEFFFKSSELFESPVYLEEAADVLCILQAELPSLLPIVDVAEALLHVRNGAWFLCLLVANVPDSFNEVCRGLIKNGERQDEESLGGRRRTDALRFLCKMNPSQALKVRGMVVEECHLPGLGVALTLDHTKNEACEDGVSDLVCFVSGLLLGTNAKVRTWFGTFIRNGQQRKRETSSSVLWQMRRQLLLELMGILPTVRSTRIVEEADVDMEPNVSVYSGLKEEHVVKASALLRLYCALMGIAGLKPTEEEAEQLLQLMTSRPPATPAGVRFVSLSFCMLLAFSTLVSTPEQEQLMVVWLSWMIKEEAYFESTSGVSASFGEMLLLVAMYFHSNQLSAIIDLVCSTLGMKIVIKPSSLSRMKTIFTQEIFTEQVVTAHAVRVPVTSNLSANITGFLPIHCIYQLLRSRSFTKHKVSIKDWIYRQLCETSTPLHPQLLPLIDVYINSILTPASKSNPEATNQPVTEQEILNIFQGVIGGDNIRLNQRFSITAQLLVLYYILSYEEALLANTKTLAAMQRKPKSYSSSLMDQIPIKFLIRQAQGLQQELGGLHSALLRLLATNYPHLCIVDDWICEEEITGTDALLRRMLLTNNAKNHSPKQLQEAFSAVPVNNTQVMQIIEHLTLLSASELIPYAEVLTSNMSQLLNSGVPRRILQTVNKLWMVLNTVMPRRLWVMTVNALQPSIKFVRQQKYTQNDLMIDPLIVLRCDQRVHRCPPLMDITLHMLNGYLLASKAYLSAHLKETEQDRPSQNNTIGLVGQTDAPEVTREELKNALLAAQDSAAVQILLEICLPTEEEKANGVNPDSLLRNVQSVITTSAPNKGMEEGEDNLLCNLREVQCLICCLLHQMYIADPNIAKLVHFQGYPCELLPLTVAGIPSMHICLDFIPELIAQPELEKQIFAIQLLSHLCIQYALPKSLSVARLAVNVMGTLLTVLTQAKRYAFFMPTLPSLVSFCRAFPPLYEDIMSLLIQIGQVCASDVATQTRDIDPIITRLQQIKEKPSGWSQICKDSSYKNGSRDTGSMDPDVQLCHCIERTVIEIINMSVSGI
# UniProt P08514, whole entry, looked up: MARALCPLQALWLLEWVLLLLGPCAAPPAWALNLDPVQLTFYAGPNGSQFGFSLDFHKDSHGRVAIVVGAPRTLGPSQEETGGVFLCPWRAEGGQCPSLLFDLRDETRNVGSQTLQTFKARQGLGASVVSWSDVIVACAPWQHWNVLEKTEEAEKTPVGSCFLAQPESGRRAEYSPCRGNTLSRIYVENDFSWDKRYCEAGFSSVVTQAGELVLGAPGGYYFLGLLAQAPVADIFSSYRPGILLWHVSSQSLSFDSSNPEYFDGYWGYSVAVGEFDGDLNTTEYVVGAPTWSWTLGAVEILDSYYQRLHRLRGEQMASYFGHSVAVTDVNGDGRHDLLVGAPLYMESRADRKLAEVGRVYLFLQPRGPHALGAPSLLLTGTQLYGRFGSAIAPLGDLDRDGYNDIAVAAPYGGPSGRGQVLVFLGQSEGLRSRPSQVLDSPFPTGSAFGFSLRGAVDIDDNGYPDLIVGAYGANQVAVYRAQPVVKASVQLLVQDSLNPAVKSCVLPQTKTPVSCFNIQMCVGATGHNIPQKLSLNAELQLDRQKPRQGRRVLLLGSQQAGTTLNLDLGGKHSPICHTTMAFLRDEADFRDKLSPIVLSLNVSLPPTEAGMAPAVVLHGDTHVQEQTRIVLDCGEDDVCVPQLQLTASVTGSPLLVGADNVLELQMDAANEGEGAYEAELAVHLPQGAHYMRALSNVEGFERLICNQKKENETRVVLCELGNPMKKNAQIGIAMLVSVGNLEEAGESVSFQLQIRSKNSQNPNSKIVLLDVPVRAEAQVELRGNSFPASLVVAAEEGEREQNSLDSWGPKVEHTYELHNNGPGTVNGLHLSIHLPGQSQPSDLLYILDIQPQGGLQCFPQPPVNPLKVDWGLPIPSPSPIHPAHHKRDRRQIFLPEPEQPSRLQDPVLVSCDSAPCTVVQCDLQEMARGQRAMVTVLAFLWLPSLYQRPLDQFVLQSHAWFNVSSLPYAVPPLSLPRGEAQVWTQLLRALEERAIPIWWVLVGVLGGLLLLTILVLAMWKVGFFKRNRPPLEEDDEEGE
# UniProt P31785: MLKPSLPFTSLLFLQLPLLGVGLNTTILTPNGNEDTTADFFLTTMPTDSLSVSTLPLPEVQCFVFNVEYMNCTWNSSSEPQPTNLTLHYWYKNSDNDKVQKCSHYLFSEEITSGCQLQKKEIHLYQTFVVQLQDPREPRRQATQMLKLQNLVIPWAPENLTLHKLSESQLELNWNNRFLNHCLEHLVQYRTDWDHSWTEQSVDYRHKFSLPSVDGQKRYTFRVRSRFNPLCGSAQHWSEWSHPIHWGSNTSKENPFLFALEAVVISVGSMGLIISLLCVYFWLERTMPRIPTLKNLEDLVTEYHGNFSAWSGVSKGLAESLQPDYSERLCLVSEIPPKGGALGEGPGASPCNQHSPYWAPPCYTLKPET
# UniProt Q96CB8, whole entry, looked up: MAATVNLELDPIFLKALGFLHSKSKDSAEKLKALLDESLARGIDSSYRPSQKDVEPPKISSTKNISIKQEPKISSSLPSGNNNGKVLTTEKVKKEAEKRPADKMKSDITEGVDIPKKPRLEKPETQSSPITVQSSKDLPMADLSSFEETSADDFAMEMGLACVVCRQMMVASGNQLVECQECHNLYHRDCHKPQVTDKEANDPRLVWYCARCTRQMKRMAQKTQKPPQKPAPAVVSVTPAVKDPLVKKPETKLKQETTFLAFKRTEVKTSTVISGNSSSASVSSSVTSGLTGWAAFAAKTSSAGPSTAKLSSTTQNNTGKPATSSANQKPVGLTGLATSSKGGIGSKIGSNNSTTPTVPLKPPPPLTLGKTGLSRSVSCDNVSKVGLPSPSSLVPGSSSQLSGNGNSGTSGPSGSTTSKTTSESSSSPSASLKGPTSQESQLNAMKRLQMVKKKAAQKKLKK
# Some of the results follow.
# Compound: C1=CC=C(C=C1)[C@H](COC2=CC3=C(C=C2)NC(=O)N3)NC(=O)C4=CC=CN(C4=O)CC5=CC(=C(C=C5)F)F
# Experiment: log2 fold change, soluble protein after heating vs DMSO (PISA); higher = thermal stabilisation; K562 cells, 10 uM, 30 min; active = over 0.2 and 3.5 SD of the protein, either way, in both replicates (recomputed)
# How it was run: (§1)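 Thermal stability values are relative to control samples and come from duplicates. They are expressed as log2 fold changes. For measurement, K562 cells (2×10^6 cells/mL) received 10 μM compound for 30 min, and aliquots were heated for 3 min over 48°C-58°C, pooled, and extracted at 4°C in PBS with 0.5% NP-40. Soluble protein, the supernatant after 21,000xg for 90 min, was quantified by TMTpro 16plex LC-MS/MS with equalised channel sums.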
row,Target,log2 fold change
1,IKZF4 (UniProt Q9H2S9),inactive: -0.157
2,IP6K1 (UniProt Q92551),inactive: 0.053
3,IRF2BP1 (UniProt Q8IU81),inactive: -0.004
4,ITPKA (UniProt P23677),inactive: -0.126
5,IL10RB (UniProt Q08334),inactive: -0.081
6,INF2 (UniProt Q27J81),inactive: -0.004
7,INO80E (UniProt Q8NBZ0),inactive: 0.115
8,ITPR1 (UniProt Q14643),inactive: -0.034
9,INHBE (UniProt P58166),inactive: -0.025
10,ITGB1BP1 (UniProt O14713),inactive: 0.02
11,IGLL5 (UniProt B9A064),inactive: -0.059
12,IGKC (UniProt P01834),inactive: 0.18
13,INAFM2 (UniProt P0DMQ5),inactive: 0.037
14,IMPDH2 (UniProt H0Y4R1),inactive: 0.109
15,IDH3A isoform 2 (UniProt P50213),inactive: 0.118
16,INTS5 (UniProt Q6P9B9),inactive: -0.091
17,IGHG1 (UniProt P01857),inactive: -0.001
18,ISL2 (UniProt Q96A47),inactive: -0.075
19,ING1 (UniProt Q9UK53),inactive: -0.025

# Compound: CC1=C(SC2=C1C(=N[C@H](C3=NN=C(N32)C)CC(=O)N)C4=CC=C(C=C4)Cl)C
# Experiment: as above
# How it was run: as §1
row,Target,log2 fold change
1,IKZF1 (UniProt R9R4D9),inactive: 0.08
2,IKZF4 (UniProt Q9H2S9),inactive: -0.002
3,IP6K1 (UniProt Q92551),inactive: 0.059
4,IGFBP3 isoform 2 (UniProt P17936),inactive: -0.081
5,IRF2BP1 (UniProt Q8IU81),inactive: 0.033
6,IQSEC2 (UniProt Q5JU85),inactive: -0.044
7,INF2 (UniProt Q27J81),inactive: -0.043
8,ITPR1 (UniProt Q14643),inactive: -0.065
9,IFT27 (UniProt Q9BW83),inactive: -0.056
10,INAFM2 (UniProt P0DMQ5),inactive: 0.038
11,IGFBP6 (UniProt P24592),inactive: 0.018
12,INTS2 (UniProt Q9H0H0),inactive: 0.376
13,IDH3A isoform 2 (UniProt P50213),inactive: 0.251
14,ITPR3 (UniProt Q14573),inactive: -0.217
15,ITGA2B (UniProt P08514),inactive: 0.022
16,INPP5K (UniProt Q9BT40),inactive: -0.1
17,IL2RG (UniProt P31785),inactive: -0.494
18,INTS12 (UniProt Q96CB8),inactive: 0.054
19,ISL2 (UniProt Q96A47),inactive: 0.078
20,ING5 (UniProt Q8WYH8),inactive: 0.051
21,ING1 (UniProt Q9UK53),inactive: -0.02

# Compound: CC1=C2C(=CC=C1)N=C(N(C2=O)C3=CC=CC=C3C)CN4C=NC5=C(N=CN=C54)N
# Experiment: as above
# How it was run: as §1
row,Target,log2 fold change
1,IKZF4 (UniProt Q9H2S9),inactive: 0.043
2,IGFBP3 isoform 2 (UniProt P17936),inactive: 0.034
3,ITPKA (UniProt P23677),inactive: 0.208
4,INIP (UniProt Q9NRY2),inactive: 0.199
5,IL10RB (UniProt Q08334),inactive: -0.149
6,INHBE (UniProt P58166),inactive: 0.142
7,IGF2 isoform 3 (UniProt P01344),inactive: 0.077
8,IGKC (UniProt P01834),inactive: -0.014
9,IMPDH2 (UniProt H0Y4R1),inactive: -0.134
10,IGFBP6 (UniProt P24592),inactive: 0.011
11,INTS2 (UniProt Q9H0H0),inactive: 0.086
12,ITPR3 (UniProt Q14573),inactive: 0.195
13,ITGA2B (UniProt P08514),inactive: 0.112
14,INPP5K (UniProt Q9BT40),inactive: 0.006
15,INTS5 (UniProt Q6P9B9),inactive: 0.052
16,IL2RG (UniProt P31785),inactive: -0.072
17,ITPRID2 (UniProt P28290),inactive: 0.106
18,IGHG1 (UniProt P01857),inactive: -0.105
19,INTS12 (UniProt Q96CB8),inactive: 0
20,IGFBP5 (UniProt P24593),inactive: 0.189

# Compound: Cc1sc2c(c1C)C(c1ccc(Cl)cc1)=N[C@@H](CC(=O)OC(C)(C)C)c1nnc(C)n1-2
# Experiment: as above
# How it was run: as §1
row,Target,log2 fold change
1,IKZF1 (UniProt R9R4D9),inactive: 0.039
2,IP6K1 (UniProt Q92551),inactive: 0.194
3,IGFBP3 isoform 2 (UniProt P17936),inactive: -0.083
4,IRF2BP1 (UniProt Q8IU81),inactive: -0.017
5,IL17RA (UniProt Q96F46),inactive: -0.215
6,ITPKA (UniProt P23677),inactive: 0.083
7,IL10RB (UniProt Q08334),inactive: 0.029
8,INO80E (UniProt Q8NBZ0),inactive: 0.145
9,ING4 (UniProt Q9UNL4),inactive: -0.066
10,ITGB1BP1 (UniProt O14713),inactive: -0.094
11,IGLL5 (UniProt B9A064),inactive: -0.032
12,IGKC (UniProt P01834),inactive: -0.28
13,INAFM2 (UniProt P0DMQ5),inactive: 0.05
14,INTS1 (UniProt Q8N201),inactive: 0.075
15,IMPDH2 (UniProt H0Y4R1),inactive: 0.083
16,INTS2 (UniProt Q9H0H0),inactive: -0.267
17,IDH3A isoform 2 (UniProt P50213),inactive: -0.069
18,ITGA2B (UniProt P08514),inactive: 0.029
19,INPP5K (UniProt Q9BT40),inactive: 0.016
20,INTS5 (UniProt Q6P9B9),inactive: 0.065
21,IL2RG (UniProt P31785),inactive: 0
22,INTS12 (UniProt Q96CB8),inactive: 0.057
23,ING5 (UniProt Q8WYH8),inactive: 0.036
24,ING1 (UniProt Q9UK53),inactive: -0.018
25,IGFBP5 (UniProt P24593),inactive: -0.456
